Assay results as given in patent US20240325435A1, “METHODS OF USING COMPOUND OF GLYCOSAMINOGLYCAN” (Holy Stone Healthcare Co., Ltd., priority 2013, published 2024).
At least one compound was matched to its structure with a doubt left.

System: Raw 264.7 cells
Assay: In vitro anti-inflammatory effect, PGE2 amount in LPS-treated Raw 264.7 cells
Type: cell-based
Conditions: 100 nM Celecoxib or equivalent, 4 hours, then 1 μg/mL LPS 24 h

Cc1ccc(-c2cc(C(F)(F)F)nn2-c2ccc(S(N)(=O)=O)cc2)cc1 [Celecoxib]
anti-inflammation effect, change percentage of PGE2 amount (FIG. 4): has treatment effect
